From publication PMC12022042
No constants are given. Whether binding was seen depends on the method and setting. For part of these data: Binding seen in cells or lysates may run through a third protein. Some entries that bind do so weakly or less than the wild type.

Protein sequences, listed by entry. Tags and fused reporters are not part of them.
UniProt Q96A61: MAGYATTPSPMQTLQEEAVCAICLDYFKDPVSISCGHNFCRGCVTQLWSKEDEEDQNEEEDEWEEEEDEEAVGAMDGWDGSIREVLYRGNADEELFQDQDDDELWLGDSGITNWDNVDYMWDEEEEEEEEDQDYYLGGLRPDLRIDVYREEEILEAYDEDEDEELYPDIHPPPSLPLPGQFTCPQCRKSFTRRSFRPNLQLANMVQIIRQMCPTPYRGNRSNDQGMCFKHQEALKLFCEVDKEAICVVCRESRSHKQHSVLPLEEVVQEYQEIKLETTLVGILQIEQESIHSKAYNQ
UniProt Q9NR09: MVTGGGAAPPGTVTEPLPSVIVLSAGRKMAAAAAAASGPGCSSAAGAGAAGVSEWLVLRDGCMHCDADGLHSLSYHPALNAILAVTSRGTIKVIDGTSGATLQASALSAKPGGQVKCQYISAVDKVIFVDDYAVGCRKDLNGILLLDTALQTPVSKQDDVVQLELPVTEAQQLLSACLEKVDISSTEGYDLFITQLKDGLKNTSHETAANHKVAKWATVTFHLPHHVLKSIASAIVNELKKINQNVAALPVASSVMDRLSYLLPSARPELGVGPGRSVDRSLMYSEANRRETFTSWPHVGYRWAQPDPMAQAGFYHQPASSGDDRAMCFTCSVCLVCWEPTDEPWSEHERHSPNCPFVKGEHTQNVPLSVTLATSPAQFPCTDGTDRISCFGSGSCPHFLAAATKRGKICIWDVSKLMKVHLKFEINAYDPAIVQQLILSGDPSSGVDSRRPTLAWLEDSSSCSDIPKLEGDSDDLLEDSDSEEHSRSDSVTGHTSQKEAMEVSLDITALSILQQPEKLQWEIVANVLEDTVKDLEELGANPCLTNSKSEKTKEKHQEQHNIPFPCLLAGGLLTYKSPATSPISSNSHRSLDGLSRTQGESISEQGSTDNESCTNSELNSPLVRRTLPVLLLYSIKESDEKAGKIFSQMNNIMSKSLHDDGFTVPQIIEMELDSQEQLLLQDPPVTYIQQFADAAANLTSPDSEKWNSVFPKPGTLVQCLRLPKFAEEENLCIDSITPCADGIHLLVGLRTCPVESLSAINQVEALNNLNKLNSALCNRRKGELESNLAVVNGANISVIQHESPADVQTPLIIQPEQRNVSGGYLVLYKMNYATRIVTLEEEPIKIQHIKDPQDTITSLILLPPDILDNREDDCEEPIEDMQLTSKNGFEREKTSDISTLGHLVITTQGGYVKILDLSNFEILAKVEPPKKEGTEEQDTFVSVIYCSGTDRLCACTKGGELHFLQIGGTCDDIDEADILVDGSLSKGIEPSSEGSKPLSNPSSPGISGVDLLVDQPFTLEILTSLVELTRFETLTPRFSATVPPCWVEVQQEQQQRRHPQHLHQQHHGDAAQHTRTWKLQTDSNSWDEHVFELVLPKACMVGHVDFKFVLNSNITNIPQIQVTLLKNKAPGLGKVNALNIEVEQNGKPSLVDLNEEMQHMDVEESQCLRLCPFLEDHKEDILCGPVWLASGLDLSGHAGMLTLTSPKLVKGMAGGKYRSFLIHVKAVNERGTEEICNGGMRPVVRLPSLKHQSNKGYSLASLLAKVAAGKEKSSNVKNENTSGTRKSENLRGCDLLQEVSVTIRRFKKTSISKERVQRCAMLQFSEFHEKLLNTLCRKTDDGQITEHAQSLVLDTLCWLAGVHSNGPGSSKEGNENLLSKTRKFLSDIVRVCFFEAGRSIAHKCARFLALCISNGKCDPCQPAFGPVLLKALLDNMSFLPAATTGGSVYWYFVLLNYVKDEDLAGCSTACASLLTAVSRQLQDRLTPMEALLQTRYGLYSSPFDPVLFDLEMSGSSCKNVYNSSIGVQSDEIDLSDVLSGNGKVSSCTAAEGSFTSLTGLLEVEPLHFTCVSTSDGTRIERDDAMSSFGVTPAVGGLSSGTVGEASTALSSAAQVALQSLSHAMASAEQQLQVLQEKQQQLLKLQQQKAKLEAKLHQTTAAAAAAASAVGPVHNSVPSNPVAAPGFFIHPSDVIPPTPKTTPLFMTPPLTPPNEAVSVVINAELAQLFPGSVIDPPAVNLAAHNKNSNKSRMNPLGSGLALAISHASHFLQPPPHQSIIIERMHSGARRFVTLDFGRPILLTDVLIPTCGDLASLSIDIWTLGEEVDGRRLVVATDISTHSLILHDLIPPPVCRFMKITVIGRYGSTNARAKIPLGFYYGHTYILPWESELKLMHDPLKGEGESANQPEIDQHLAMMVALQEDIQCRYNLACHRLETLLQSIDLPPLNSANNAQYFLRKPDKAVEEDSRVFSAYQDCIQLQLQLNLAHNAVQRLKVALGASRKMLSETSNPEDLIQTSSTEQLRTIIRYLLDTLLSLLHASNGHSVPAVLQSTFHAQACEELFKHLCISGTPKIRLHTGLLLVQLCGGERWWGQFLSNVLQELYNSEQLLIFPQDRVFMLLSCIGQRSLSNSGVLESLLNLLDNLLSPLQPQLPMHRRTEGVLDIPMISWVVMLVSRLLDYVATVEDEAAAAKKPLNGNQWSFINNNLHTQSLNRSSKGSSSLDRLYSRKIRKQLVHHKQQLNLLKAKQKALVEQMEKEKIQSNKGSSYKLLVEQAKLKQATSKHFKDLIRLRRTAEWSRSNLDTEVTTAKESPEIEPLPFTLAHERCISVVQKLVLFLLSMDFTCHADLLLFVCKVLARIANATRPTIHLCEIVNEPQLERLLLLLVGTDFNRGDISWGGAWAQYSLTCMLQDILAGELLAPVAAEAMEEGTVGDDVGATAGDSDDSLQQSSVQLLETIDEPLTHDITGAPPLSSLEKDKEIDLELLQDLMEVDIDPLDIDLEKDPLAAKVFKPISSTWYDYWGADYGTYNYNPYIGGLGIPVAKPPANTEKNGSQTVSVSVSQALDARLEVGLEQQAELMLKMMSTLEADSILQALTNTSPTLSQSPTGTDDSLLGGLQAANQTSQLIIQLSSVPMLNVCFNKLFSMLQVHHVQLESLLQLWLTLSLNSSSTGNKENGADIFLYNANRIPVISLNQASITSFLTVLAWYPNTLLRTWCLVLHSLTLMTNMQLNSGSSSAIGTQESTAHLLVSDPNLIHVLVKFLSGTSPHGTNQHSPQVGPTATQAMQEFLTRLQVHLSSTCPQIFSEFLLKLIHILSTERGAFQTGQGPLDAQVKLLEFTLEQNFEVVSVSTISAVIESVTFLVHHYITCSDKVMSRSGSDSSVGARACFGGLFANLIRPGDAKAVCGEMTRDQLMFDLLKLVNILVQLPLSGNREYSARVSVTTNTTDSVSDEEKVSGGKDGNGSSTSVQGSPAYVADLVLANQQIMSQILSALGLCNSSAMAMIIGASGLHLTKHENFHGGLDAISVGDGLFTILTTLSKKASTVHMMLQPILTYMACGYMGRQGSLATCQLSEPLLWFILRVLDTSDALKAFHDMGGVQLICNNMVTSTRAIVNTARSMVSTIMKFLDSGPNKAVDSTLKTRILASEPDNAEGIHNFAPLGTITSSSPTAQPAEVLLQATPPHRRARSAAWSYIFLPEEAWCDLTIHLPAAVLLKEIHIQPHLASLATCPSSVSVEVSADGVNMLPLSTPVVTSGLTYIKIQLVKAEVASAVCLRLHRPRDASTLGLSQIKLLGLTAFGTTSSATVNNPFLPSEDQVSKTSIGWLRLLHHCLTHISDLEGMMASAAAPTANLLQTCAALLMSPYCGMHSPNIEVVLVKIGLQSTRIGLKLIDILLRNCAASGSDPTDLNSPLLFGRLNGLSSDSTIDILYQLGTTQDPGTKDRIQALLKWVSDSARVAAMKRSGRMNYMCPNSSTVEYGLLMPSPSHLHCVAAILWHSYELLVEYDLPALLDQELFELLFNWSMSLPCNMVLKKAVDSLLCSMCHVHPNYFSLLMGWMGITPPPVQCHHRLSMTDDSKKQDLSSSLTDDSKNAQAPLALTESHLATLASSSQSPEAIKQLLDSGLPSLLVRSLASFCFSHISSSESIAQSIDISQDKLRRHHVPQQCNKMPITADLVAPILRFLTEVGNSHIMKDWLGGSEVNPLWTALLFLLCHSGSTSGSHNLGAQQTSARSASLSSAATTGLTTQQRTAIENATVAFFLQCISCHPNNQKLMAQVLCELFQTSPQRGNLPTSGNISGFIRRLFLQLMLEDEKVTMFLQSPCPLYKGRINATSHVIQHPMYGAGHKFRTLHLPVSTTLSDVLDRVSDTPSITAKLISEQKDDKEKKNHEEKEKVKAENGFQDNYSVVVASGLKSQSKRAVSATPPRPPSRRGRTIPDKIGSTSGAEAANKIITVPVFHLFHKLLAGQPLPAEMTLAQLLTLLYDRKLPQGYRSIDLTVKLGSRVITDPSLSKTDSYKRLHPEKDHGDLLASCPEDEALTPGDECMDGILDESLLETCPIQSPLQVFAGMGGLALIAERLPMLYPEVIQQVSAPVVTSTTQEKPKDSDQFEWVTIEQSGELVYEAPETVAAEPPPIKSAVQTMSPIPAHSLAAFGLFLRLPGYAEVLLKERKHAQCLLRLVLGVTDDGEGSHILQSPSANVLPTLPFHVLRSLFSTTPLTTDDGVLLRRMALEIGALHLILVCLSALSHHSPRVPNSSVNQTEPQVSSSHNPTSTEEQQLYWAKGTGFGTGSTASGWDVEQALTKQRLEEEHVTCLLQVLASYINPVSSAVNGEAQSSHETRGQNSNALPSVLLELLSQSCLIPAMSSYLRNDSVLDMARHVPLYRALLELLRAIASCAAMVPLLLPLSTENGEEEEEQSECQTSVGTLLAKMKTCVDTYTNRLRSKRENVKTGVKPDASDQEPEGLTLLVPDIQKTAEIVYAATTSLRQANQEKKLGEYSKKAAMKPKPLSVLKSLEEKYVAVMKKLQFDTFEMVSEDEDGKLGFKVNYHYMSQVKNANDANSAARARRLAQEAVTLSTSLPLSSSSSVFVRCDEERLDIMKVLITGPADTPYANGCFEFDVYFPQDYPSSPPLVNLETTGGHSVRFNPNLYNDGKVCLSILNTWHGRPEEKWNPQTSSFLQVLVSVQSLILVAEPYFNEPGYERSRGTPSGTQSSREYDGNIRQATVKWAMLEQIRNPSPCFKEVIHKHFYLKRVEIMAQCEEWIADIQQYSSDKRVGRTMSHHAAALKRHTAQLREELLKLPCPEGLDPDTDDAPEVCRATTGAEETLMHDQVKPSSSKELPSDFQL

What was measured:
[1] = molecular target: 3xHA-tagged TRIM52 (human) (UniProt Q96A61); assay: co-IP; HEK-293T cells expressing 3xHA-tagged TRIM52 or ΔLoop2, treated with epoxomicin for 5 h; Frackelton lysis buffer (50 mM NaCl, 1% Triton X-100); anti-HA antibody and Protein A/G magnetic beads, 4 °C; WB for endogenous E3 ligases
[2] = molecular target: TwinStrep-tagged EGFP-TRIM52 (human) (UniProt Q96A61); assay: co-IP; 1 µg purified EGFP-TRIM52 and 1 µg purified HUWE1 incubated in 25 mM HEPES pH 7.5, 150 mM KCl, 4 mM MgCl2, 0.5 mM TCEP at 4 °C; captured on GFP-Trap magnetic beads; WB; both purified

Substance	binding [1]	binding [2]
BIRC6 (endogenous) (from UniProt Q9NR09 1-4857) (enzyme)	binds	
HUWE1 (endogenous) (from UniProt Q7Z6Z7 1-4374) (enzyme)	binds	
purified human HUWE1 (from UniProt Q7Z6Z7 1-4374) (enzyme)		binds
